The source of these data is the supplement of paper PMC7024190.

The structures appear in SMILES notation. Structures can show the parent of a compound that is named as a salt. The list shows a part of the results. This data set is noisy: repeats of one test often differ as much as different tests do.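 Human embryonic kidney cells were transiently transfected with a plasmid bearing a Renilla luciferase gene under the HSV-TK promoter. This first-round screen tests roughly ten thousand compounds for ones that increase reporter output.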

This test concerns HEK 293FT. The test is described as follows: log relative Renilla luciferase luminescence (reporter expression vs reference, reference not stated) (log (base not stated)); higher = higher recombinant reporter expression. The settings on record: 10 µM; time after transfection 48 h.
For `C#C[C@]1(O)CC[C@H]2[C@@H]3CCc4cc(OC)ccc4[C@H]3CC[C@@]21C`, the log is -0.109.
With `CC1=Nc2ccc(Cl)cc2S(=O)(=O)N1`, the log is -0.162.
On to `COc1ccc(CN2CCN(C(c3ccc(F)cc3)c3ccc(F)cc3)CC2)c(OC)c1OC`, for which the log is -0.212.
`CN1[C@@H](CC(=O)c2ccccc2)CCC[C@H]1C[C@H](O)c1ccccc1`: the log was -0.194.
As to `COCCCOc1ccnc(C[S+]([O-])c2nc3ccccc3[nH]2)c1C` (centres undefined), the log was -0.0247.
With `O=c1[nH]c(=O)n(C2CCCO2)cc1F` (centres undefined), the log was -0.196.
In the case of `CCCN[C@H]1CCc2nc(N)sc2C1`, the log was -0.15.
Turning to `CCN(CC)C(=O)C1(c2ccccc2)CC1CN` (centres undefined) [Milnacipran], the log was -0.0854.
In the case of `CC[C@@H]1C(=O)OC[C@@H]1Cc1cncn1C`, the log amounted to 0.233.
Consider `CN(C/C=C/C#CC(C)(C)C)Cc1cccc2ccccc12`, for which the log was -0.0986.
`Nc1nc2ccc(OC(F)(F)F)cc2s1` [Riluzole]: the log was 0.0932.
In the case of `CN[C@H]1CC[C@@H](c2ccc(Cl)c(Cl)c2)c2ccccc21` [Sertraline], the log was -0.139.
Regarding `NC1CCN(c2cccc(Cl)n2)CC1`, the log stood at 0.071.
As to `COc1cc(C(=O)NS(=O)(=O)c2ccccc2C)ccc1Cc1cn(C)c2ccc(NC(=O)OC3CCCC3)cc12`, the log is -0.155.
The result for `CC(=O)SCC(Cc1ccccc1)C(=O)NCC(=O)OCc1ccccc1` (centres undefined) reads 0.156.
Consider `COc1ccc2cc([C@H](C)C(=O)O)ccc2c1`, for which the log turned out to be 0.0477.
The result for `CC(C)NCC(O)COc1ccc(COCCOC(C)C)cc1` (centres undefined) reads -1.34; that for `CC(C)c1ccc2c(c1)c(SC(C)(C)C)c(CC(C)(C)C(=O)O)n2Cc1ccc(Cl)cc1`, -0.381.
For `CN(C)CCc1c[nH]c2ccc(C[C@H]3COC(=O)N3)cc12` [Zolmitriptan] the value was 0.078; for `C[C@]12CCC(=O)C=C1CC[C@@H]1[C@@H]2C(=O)C[C@@]2(C)[C@H]1CC[C@]2(O)C(=O)CO`, -0.174.
`C=CCc1ccc(O)c(-c2ccc(O)c(CC=C)c2)c1`: the log is -0.0934.
For `COC(=O)C[C@](O)(CCCC(C)(C)O)C(=O)O[C@@H]1C(OC)=C[C@]23CCCN2CCc2cc4c(cc2[C@H]13)OCO4` the value was -1.45; for `Cc1cccc(C)c1NC(=O)C1CCCCN1C` (centres undefined), 0.109.
`CCOC(=O)C1=C(COCCN)NC(C)=C(C(=O)OC)C1c1ccccc1Cl` (centres undefined): the log stood at 0.082.
In the case of `CN1CCN(CCCN2c3ccccc3Sc3ccc(C(F)(F)F)cc32)CC1`, the log stood at 0.106.
As for `COc1cc(C[C@@H](CO)[C@H](CO)Cc2ccc(O)c(OC)c2)ccc1O`, the log was found to be 0.0325.
As to `CN1C2CCCC1CC(NC(=O)c1nn(C)c3ccccc13)C2` (centres undefined), the log came to 0.121.
For `CC1=C(C(=O)O)N2C(=O)[C@@H](NC(=O)[C@H](N)c3ccccc3)[C@H]2SC1` [Cephalexin monohydrate] the value was -0.185.
On to `Nc1ccc2cn[nH]c2c1`, for which the log worked out at 0.0903.
`NNCCc1ccccc1`: the log is 0.114.
As for `O=c1c(-c2ccccc2)c1-c1ccccc1` [diphenylcyclopropenone], the log stood at 0.0644.
As to `CN(Cc1cnc2nc(N)nc(N)c2n1)c1ccc(C(=O)N[C@@H](CCC(=O)O)C(=O)O)cc1`, the log is -0.277.
The result for `CCC1=C(C)CN(C(=O)NCCc2ccc(S(=O)(=O)NC(=O)N[C@H]3CC[C@H](C)CC3)cc2)C1=O` reads 0.13; that for `CCc1c2c(nc3ccc(OC(=O)N4CCC(N5CCCCC5)CC4)cc13)-c1cc3c(c(=O)n1C2)COC(=O)[C@]3(O)CC` [IRINOTECAN HCl )trihydrate)], -0.826.
For the compound `CCCc1c(OCCCCc2nnn[nH]2)ccc(C(C)=O)c1O`, the log was 0.0439.
In the case of `COc1ccc2c(c1)c(CC(=O)O)c(C)n2C(=O)c1ccc(Cl)cc1` [Indomethacin], the log is -0.135.
For `COc1cc(/C=C/c2ccc(O)cc2)cc(OC)c1` the value was -0.376.
`O=C(O)COCCN1CCN([C@H](c2ccccc2)c2ccc(Cl)cc2)CC1`: the log was -0.131.
In the case of `COc1ccc(/C=C/C(=O)Nc2ccccc2C(=O)O)cc1OC`, the log was found to be 0.0341.
